Results published in patent US20090061444A1 (WISCONSIN ALUMNI RESEARCH FOUNDATION, published 2009).
Results are given in words; binding and its absence hold for the method and conditions named. Some binding calls cover weakened binding; strength is not graded here.

Target: SyB-Cph1 (GAF-PHY) chromoprotein assembled with PCB (Synechococcus sp. OS Type B′)
Assay: size exclusion chromatography (Superose 6), non-denaturing; homodimerisation

B1: SyB-Cph1 (GAF-PHY) chromoprotein assembled with PCB (protein)
chain: MDTETWAAAARPSRDALINRITHQIRQSLELDQILRATVEEVRAFLGTDRVKVYRFDPEGHGTVVAEARGGERLPSLLGLTFPAGDIPEEARRLFRLAQVRVIVDVEAQSRSISQPESWGLSARVPLGEPLQRPVDPCHVHYLKSMGVASSLVVPLMHHQELWGLLVSHHAEPRPYSQEELQVVQLLADQVSIAIAQAELLEQARQKAQQERLINQIAALVYSPLHPETTLTTVLEQLAAGLQGIGARLRIHFMGADTLCCHGVQPPASYDTWLQEQLGRAGGAGGWVKMWSLSHLEKWPELQEQMKQTPIRGLLVAQLAWNDQPVGWLSVFRGAVYQETHWAGYRWFTQGDPRQELPLISFAAWRELKIDEPKAWSAAEQELMSRVGVHLALSITQNQLYRQLQTLNARLEQEVQERTAAHHHHHH
modifications: phycocyanobilin (PCB) covalently bound at Cys-138
In the case of B1, the binding is reported as “binds”.
